Measurements reported in PubChem BioAssay AID602196 (INSERM, 2012)
The deposit covers about 23,000 reagents; below is a random part of them. 455 of all reagents (2%) were called active. 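Active includes both protection and sensitisation; some change values fall well beyond the stated -50 to +50 range.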 The record does not give: the amount of reagent.

- Purpose: 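Modifiers of cisplatin sensitivity in A549 cells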
- System: human A549 lung cancer cells
- Reagents: siRNA pair against human genes
- Time to read-out: 48 h transfection before cisplatin; time from cisplatin to read-out not stated
- Challenge: cisplatin at a dose killing half of control-siRNA cells; exact dose and duration not given
- Measured: 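Cisplatin cell death as a shift from the 50% death seen with control siRNA; siRNAs toxic or growth-blocking alone scored 0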
- Scale: two-siRNA summed score (-2 to +2): higher = both siRNAs protect from cisplatin killing; -2 means both sensitise; mean protection from cisplatin (shift in death) and protection from cisplatin (shift in death), siRNA C and protection from cisplatin (shift in death), siRNA D: higher = protection from cisplatin killing
- Hit rule: 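siRNAs harmful alone (LDH or WST-1) get 0; others get +1 for less and -1 for more cisplatin killing; genes are active when the two siRNAs give the same sign, summing to ±2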
- Calls: active = both siRNAs shift cisplatin killing the same way; inactive = no consistent shift, or siRNA harmful alone

Gene	two-siRNA summed score (-2 to +2)	mean protection from cisplatin (shift in death) (%)	protection from cisplatin (shift in death), siRNA C (%)	protection from cisplatin (shift in death), siRNA D (%)	outcome
PISD	0	0.2	2.1	-1.6	inactive
DMRTA1	0	-4.5	2	-10.9	inactive
PRRC2B	0	7.9	7	8.8	inactive
LOC441359	1	18.7	11.5	26	inactive
RAB6B	0	-31.3	-51.2	-11.3	inactive
UBL7-DT	0	15.6	17.4	13.9	inactive
ENPP4	0	3.9	3.9	4	inactive
SPRR1B	0	-8.6	-6.4	-10.7	inactive
CARD10	0	6.7	13.8	-0.5	inactive
HTR4	0	0.7	11.5	-10.1	inactive
ARHGAP27P2	1	9.3	8.9	9.7	inactive
HNRNPUL1	1	2.6	-16.1	21.3	inactive
TSNAXIP1	0	-2	9.7	-13.7	inactive
CARS2	1	15.8	24.4	7.3	inactive
OPRM1	-1	-15.6	-22.8	-8.5	inactive
FRMPD4	0	12.4	15.2	9.6	inactive
HIVEP2	0	10.7	18.7	2.7	inactive
VCX2	0	5	4.2	5.9	inactive
CACNA2D2	0	-5.5	-3.9	-7.1	inactive
TRIB3	0	2	15.3	-11.4	inactive
ZNF319	0	-7.9	-8.8	-6.9	inactive
QSER1	0	8.6	14.1	3	inactive
RPP30	0	13.7	10.9	16.6	inactive
CHIA	0	3.1	3.1	3.1	inactive
ANKS1B	0	9	6.4	11.6	inactive
LOC391655	0	8.7	0.5	16.8	inactive
APC2	-1	1.5	14.1	-11.2	inactive
ALDH3A2	0	0.9	6	-4.2	inactive
BAIAP2L1	0	-0.8	-4.8	3.1	inactive
REX1BD	0	3.6	13.1	-5.9	inactive
ZNF436	0	4.1	-0.2	8.4	inactive
FLJ38564	0	4.3	-3.1	11.6	inactive
OR2T5	0	13	17.9	8	inactive
CCL3L1	1	14	31.2	-3.3	inactive
SPMIP2	0	12.5	15.4	9.5	inactive
ATOH1	1	6.8	12.6	1	inactive
RADX	0	2.9	3.6	2.1	inactive
RFX1	0	9.1	0.2	18.1	inactive
RPL23AP82	0	15.8	20.1	11.5	inactive
TMEM174	0	-1.5	6.2	-9.2	inactive
LOC253254	0	5.6	1.5	9.8	inactive
LOC388937	-1	-11.9	0.1	-23.8	inactive
SYT13	0	4.9	6.1	3.7	inactive
ITLN2	0	-7.1	0.6	-14.8	inactive
ZBTB22	1	7.7	14.1	1.3	inactive
TRPM5	-1	-6.7	-21.3	7.8	inactive
LOC439992	0	25.8	18.8	32.8	inactive
TTYH1	0	2.5	3.6	1.3	inactive
CRACDL	0	12.5	0	25	inactive
GPR52	1	19	6.8	31.2	inactive
SOD1	0	3.7	-2.5	10	inactive
IL22RA1	0	1.7	8	-4.6	inactive
TENM3	0	-3.9	-8.7	0.9	inactive
LZTFL1	0	2	5.1	-1	inactive
PLEKHF2	0	16.3	5.4	27.2	inactive
PMFBP1	0	1.8	8.2	-4.6	inactive
ID2	1	6.9	-7.4	21.3	inactive
